This is one part of the list.
Experiments:
Assay in all cases: log2 fold change, soluble protein after heating vs DMSO (PISA); higher = thermal stabilisation; K562 lysate, 10 uM; active = over 0.2 and 3.5 SD of the protein, either way, in both replicates (recomputed)
[1] = compound: C1=CC=C(C=C1)[C@H](COC2=CC3=C(C=C2)NC(=O)N3)NC(=O)C4=CC=CN(C4=O)CC5=CC(=C(C=C5)F)F
Method in brief: (§1)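 K562 pellets were dounce-homogenised in PBS pH 7.4 containing 1 mM MgCl2, and the crude extract, at 1 mg/mL protein, was exposed to 10 μM compound for 30 min. Aliquots were heated for 3 min across 48°C-58°C, pooled, brought to 0.5% NP-40 at 4°C and spun at 21,000xg for 90 min, with the supernatant taken as soluble protein. TMTpro 16plex LC-MS/MS with equalised channel sums quantified that protein. Values are log-two fold changes in thermal stability relative to solvent controls, taken from duplicates.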

Sequences of proteins named here, by UniProt entry; tags and fusion partners are left off. A change or cut given only in a name is not applied to a line headed by its entry.
UniProt P58107: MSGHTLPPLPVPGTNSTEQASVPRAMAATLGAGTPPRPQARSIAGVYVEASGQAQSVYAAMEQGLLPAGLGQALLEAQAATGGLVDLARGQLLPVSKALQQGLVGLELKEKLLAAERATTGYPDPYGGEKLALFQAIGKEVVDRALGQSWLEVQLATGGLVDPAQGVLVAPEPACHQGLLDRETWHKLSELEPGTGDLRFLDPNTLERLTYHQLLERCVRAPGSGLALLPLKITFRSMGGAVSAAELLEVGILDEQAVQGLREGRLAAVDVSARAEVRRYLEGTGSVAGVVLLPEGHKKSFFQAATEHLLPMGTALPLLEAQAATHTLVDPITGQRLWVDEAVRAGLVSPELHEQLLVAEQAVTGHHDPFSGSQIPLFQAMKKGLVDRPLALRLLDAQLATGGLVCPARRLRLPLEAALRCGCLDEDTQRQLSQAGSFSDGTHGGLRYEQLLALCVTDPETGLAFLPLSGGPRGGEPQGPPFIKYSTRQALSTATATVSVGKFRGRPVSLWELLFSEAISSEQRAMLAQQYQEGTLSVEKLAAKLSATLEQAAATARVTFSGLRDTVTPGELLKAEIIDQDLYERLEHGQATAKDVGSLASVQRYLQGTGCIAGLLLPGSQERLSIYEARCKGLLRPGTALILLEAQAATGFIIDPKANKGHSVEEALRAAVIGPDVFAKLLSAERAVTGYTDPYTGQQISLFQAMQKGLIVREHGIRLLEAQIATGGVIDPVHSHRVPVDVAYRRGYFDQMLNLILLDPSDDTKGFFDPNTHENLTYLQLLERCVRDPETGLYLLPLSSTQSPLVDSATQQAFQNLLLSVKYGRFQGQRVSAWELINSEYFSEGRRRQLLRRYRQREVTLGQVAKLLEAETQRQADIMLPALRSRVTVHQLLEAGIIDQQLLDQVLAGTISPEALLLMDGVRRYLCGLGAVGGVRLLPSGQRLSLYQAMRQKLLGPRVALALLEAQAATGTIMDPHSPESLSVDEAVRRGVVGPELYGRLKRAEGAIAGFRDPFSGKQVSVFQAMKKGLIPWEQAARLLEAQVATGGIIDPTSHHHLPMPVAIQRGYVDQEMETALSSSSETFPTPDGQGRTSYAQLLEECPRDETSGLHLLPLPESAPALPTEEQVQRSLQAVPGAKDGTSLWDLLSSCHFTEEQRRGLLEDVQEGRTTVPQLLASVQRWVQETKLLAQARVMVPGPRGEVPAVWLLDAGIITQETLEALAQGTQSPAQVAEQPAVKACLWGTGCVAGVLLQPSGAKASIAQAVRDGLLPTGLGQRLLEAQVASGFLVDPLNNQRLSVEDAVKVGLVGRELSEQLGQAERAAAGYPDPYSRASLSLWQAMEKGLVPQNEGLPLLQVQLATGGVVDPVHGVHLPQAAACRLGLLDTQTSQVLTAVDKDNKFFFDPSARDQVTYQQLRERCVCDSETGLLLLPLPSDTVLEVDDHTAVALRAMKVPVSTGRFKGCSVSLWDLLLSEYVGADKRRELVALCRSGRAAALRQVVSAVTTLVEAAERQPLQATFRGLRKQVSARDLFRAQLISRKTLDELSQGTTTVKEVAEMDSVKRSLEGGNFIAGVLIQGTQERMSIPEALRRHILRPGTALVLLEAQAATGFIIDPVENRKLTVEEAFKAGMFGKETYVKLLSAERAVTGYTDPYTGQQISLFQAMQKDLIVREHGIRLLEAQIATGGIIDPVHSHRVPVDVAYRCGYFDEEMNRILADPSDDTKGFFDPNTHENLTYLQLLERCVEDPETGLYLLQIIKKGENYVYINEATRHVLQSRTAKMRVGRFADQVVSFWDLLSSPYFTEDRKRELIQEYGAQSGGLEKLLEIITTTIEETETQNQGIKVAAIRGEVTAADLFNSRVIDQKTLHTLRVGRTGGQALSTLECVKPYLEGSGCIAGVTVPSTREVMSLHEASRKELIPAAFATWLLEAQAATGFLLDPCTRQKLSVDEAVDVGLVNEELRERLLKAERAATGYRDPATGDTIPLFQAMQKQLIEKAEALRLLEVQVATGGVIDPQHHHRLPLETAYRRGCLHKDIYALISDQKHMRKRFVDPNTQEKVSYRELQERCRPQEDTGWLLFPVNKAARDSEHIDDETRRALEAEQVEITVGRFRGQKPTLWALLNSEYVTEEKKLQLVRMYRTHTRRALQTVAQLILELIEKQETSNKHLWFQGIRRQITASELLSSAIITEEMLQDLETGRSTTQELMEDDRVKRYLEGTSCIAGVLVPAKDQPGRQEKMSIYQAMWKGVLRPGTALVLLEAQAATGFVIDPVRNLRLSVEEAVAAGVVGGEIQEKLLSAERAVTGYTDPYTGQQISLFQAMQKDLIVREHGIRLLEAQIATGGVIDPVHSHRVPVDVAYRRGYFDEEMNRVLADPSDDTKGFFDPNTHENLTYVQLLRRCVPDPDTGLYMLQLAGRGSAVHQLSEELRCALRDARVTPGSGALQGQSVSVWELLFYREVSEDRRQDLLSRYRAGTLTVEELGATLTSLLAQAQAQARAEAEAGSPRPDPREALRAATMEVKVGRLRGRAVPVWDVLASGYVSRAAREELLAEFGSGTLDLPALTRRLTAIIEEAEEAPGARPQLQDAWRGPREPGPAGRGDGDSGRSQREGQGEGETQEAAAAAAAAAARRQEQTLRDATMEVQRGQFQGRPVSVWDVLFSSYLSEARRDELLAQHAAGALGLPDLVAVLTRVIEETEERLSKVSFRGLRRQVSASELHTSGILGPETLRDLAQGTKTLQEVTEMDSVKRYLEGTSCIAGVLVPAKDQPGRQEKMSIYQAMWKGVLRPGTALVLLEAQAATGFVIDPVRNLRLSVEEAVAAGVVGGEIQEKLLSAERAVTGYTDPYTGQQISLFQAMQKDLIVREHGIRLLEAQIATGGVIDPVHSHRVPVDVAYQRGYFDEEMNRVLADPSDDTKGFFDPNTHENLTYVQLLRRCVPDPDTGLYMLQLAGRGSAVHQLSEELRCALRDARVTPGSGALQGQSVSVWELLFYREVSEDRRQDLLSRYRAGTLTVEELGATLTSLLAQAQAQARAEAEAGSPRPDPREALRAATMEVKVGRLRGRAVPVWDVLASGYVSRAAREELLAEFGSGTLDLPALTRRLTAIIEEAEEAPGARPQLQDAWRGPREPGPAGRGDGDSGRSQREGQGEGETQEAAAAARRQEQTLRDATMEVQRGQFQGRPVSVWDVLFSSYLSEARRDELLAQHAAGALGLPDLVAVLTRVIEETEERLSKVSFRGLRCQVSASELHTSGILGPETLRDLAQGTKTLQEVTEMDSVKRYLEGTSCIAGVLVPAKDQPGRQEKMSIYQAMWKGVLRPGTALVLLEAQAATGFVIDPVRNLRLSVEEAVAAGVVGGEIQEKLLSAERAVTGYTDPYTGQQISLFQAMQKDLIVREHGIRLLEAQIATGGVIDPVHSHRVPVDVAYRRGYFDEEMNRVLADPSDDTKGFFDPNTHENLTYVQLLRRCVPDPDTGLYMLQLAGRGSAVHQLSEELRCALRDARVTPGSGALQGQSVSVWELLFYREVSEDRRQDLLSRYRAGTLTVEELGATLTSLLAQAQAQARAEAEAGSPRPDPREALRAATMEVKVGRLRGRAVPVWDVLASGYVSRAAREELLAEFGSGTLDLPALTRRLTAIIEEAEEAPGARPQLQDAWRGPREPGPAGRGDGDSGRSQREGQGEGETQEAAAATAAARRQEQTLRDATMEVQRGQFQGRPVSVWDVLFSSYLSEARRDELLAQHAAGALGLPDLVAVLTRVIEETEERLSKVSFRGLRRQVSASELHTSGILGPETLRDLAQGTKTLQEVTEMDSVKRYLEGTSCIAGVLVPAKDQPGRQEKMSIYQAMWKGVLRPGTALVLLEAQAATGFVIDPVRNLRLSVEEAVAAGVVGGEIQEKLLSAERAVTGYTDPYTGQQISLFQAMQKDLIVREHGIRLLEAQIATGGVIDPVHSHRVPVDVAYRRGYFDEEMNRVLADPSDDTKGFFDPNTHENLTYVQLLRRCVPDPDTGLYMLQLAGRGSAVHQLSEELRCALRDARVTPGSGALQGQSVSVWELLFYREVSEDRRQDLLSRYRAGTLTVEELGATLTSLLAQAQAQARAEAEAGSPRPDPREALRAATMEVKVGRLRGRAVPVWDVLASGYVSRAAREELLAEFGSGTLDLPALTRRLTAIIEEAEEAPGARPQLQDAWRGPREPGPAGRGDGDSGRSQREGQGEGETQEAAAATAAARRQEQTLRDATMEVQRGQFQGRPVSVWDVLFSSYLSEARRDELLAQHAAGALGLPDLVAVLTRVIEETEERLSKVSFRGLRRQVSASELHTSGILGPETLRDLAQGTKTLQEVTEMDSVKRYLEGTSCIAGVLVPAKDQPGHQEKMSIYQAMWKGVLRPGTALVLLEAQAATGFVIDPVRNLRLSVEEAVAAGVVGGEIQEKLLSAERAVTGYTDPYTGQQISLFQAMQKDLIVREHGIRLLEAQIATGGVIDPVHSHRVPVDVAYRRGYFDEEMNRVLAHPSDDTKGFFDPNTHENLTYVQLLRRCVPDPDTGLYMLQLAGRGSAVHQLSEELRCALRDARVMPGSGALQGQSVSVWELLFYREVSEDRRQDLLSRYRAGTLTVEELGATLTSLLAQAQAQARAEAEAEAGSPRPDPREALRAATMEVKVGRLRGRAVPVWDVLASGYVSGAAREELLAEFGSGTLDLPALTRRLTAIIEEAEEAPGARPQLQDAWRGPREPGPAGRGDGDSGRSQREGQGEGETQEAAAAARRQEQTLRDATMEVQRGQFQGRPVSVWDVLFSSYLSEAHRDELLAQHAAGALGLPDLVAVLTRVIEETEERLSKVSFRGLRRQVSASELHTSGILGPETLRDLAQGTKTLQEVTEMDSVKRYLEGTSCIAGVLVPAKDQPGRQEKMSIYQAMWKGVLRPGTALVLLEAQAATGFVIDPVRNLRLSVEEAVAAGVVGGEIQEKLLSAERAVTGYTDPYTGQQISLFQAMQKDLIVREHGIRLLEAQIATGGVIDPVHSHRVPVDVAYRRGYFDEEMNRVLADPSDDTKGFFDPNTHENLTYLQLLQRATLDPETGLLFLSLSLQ
UniProt Q0PNE2: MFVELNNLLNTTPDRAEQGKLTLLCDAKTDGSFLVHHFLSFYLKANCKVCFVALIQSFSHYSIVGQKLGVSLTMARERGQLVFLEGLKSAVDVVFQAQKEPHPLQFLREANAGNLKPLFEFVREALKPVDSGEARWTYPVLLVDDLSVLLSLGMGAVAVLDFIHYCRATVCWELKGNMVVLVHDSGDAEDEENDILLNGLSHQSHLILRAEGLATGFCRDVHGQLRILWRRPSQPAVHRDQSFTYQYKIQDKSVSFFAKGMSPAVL
UniProt Q9UHY7: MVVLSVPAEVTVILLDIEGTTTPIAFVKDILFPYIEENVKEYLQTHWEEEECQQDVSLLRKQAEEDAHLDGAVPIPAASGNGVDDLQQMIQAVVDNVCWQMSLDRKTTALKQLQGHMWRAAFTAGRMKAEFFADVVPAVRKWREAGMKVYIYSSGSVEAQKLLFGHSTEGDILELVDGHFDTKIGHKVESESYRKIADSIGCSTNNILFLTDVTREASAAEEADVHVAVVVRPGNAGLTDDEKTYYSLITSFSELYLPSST
UniProt Q14249: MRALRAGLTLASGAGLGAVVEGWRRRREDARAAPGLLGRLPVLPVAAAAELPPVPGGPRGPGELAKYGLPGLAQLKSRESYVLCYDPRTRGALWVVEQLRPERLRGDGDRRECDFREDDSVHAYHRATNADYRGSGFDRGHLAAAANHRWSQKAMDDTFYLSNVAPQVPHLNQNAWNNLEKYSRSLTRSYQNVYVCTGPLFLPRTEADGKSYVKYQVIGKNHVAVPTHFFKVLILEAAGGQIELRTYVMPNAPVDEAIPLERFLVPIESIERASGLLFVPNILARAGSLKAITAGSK
UniProt Q9NYP7: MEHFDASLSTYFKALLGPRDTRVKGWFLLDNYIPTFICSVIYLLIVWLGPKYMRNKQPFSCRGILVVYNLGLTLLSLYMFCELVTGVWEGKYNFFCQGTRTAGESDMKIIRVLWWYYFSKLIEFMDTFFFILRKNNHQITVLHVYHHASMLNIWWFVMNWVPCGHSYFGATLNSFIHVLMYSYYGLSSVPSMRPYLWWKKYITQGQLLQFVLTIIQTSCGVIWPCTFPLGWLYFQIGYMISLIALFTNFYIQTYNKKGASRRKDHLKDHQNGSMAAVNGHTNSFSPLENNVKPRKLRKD
UniProt P20042, whole entry, looked up: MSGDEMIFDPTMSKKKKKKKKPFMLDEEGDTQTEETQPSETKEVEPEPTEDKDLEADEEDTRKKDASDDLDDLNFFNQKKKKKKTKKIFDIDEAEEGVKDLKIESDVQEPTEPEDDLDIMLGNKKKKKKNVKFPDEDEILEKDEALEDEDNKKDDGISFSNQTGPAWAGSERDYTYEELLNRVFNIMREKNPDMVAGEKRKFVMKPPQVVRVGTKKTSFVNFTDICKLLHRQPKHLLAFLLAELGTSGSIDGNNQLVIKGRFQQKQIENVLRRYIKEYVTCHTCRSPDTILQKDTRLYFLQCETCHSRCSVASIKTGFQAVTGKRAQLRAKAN

[2] = compound: CC1=C(SC2=C1C(=N[C@H](C3=NN=C(N32)C)CC(=O)N)C4=CC=C(C=C4)Cl)C
Method in brief: as §1

[3] = compound: CC1=C2C(=CC=C1)N=C(N(C2=O)C3=CC=CC=C3C)CN4C=NC5=C(N=CN=C54)N
Method in brief: as §1

[4] = compound: Cc1sc2c(c1C)C(c1ccc(Cl)cc1)=N[C@@H](CC(=O)OC(C)(C)C)c1nnc(C)n1-2
Method in brief: as §1

[5] = compound: c1ccc([C@@H]2C[C@H]2NC2CCNCC2)cc1
Method in brief: as §1

Measured: log2 fold change

ELMOD2 (UniProt Q8IZ81)
inactive: [1] 0.011 | [2] 0.03 | [3] 0.034 | [4] -0.137 | [5] 0.068

EMC1 (UniProt Q8N766)
inactive: [1] -0.011 | [2] 0.013 | [3] 0.008 | [4] 0.004 | [5] -0.021

EPPK1 (UniProt P58107)
inactive: [1] -0.064 | [2] -0.012 | [3] 0.003 | [4] 0.01 | [5] 0.064

EPB41L1 (UniProt Q9H4G0)
inactive: [1] -0.018 | [2] 0.073 | [3] -0.037 | [4] -0.112 | [5] 0.021

EIF3M (UniProt Q7L2H7)
inactive: [1] 0.005 | [2] 0.004 | [3] -0.038 | [4] 0.033 | [5] 0.087

EML2 isoform 3 (UniProt O95834)
inactive: [1] -0.05 | [2] 0.018 | [3] -0.016 | [4] 0.027 | [5] 0.067

EIF2B5 (UniProt Q13144)
inactive: [1] -0.03 | [2] 0.007 | [3] 0.019 | [4] 0.023 | [5] 0.017

ENPP3 (UniProt O14638)
inactive: [1] 0.079 | [2] 0.034 | [3] 0.006 | [4] -0.047 | [5] -0.036

ERGIC1 (UniProt Q969X5)
inactive: [1] 0.063 | [2] 0.025 | [3] 0.035 | [4] 0.063 | [5] 0.011

ENY2 (UniProt Q9NPA8)
inactive: [1] 0.033 | [2] -0.001 | [3] -0.162 | [4] 0.117 | [5] 0.386

EIF4E2 (UniProt O60573)
inactive: [1] 0.068 | [2] -0.012 | [3] 0.052 | [4] -0.069 | [5] 0.033

ELP6 (UniProt Q0PNE2)
inactive: [1] 0.014 | [2] 0.01 | [3] 0.024 | [4] -0.03 | [5] -0.048

EIF4G2 (UniProt P78344)
inactive: [1] -0.105 | [2] -0.009 | [3] 0.025 | [4] 0.041 | [5] 0.041

EIF3K (UniProt Q9UBQ5)
inactive: [1] -0.084 | [2] -0.026 | [3] 0.02 | [4] -0.01 | [5] 0.017

ELP3 (UniProt Q9H9T3)
inactive: [1] 0.017 | [2] 0.046 | [3] -0.002 | [4] 0.008 | [5] 0.032

ELK1 (UniProt P19419)
inactive: [1] -0.171 | [2] -0.007 | [3] 0.391 | [4] 0.122 | [5] -0.024

EIF3L (UniProt Q9Y262)
inactive: [1] 0.019 | [2] 0.013 | [3] 0.003 | [4] -0.002 | [5] 0.045

EPS15L1 isoform 2 (UniProt Q9UBC2)
inactive: [1] 0.021 | [2] 0.001 | [3] -0.007 | [4] -0.003 | [5] 0.018

EMG1 (UniProt Q92979)
inactive: [1] -0.004 | [2] -0.001 | [3] -0.002 | [4] -0.003 | [5] 0.018

EOGT (UniProt Q5NDL2)
inactive: [1] 0.005 | [2] 0.025 | [3] 0.078 | [4] -0.029 | [5] 0

EIF2AK4 (UniProt Q9P2K8)
inactive: [1] -0.033 | [2] 0.006 | [3] 0.019 | [4] 0.014 | [5] -0.019

EPHB4 (UniProt P54760)
inactive: [1] -0.05 | [2] 0.026 | [3] 0.111 | [4] -0.078 | [5] 0.029

EIF3D (UniProt O15371)
inactive: [1] -0.004 | [2] 0.029 | [3] 0.011 | [4] 0.035 | [5] 0.037

EIF2S1 (UniProt P05198)
inactive: [1] 0.007 | [2] 0.018 | [3] 0.001 | [4] -0.002 | [5] -0.02

EIF3F (UniProt O00303)
inactive: [1] -0.013 | [2] -0.029 | [3] 0.034 | [4] 0.013 | [5] 0.037

ENOPH1 (UniProt Q9UHY7)
inactive: [1] -0.029 | [2] 0.004 | [3] 0.019 | [4] -0.008 | [5] 0.05

EP300 (UniProt Q09472)
inactive: [1] -0.048 | [2] -0.013 | [3] 0.025 | [4] 0.005 | [5] -0.016

ELP4 (UniProt Q96EB1)
inactive: [1] 0.032 | [2] 0.026 | [3] 0.005 | [4] -0.022 | [5] -0.04

ENDOD1 (UniProt O94919)
inactive: [1] 0.052 | [2] -0.029 | [3] 0.034 | [4] -0.067 | [5] 0.068

ERCC3 (UniProt P19447)
inactive: [1] 0.014 | [2] -0.035 | [3] -0.001 | [4] -0.004 | [5] 0.037

EIF2B1 (UniProt Q14232)
inactive: [1] 0.013 | [2] 0.013 | [3] -0.027 | [4] 0.035 | [5] -0.023

ENDOG (UniProt Q14249)
inactive: [1] 0.032 | [2] -0.005 | [3] 0.012 | [4] -0.024 | [5] 0.038

EPCAM (UniProt P16422)
inactive: [1] 0.021 | [2] 0.021 | [3] -0.124 | [4] -0.124 | [5] -0.026

EIF3I (UniProt Q13347)
inactive: [1] -0.038 | [2] 0.022 | [3] 0.01 | [4] 0.019 | [5] 0.033

EIF4A3 (UniProt P38919)
inactive: [1] -0.011 | [2] 0.047 | [3] 0.036 | [4] -0.036 | [5] 0

ERCC4 (UniProt Q92889)
active: [5] -0.305
inactive: [1] -0.038 | [2] 0.036 | [3] 0.043 | [4] -0.008

ELOVL5 isoform 2 (UniProt Q9NYP7)
inactive: [1] -0.05 | [2] -0.003 | [3] 0.074 | [4] -0.122 | [5] 0.016

EIF3G (UniProt K7ER90)
inactive: [1] 0.05 | [2] 0.047 | [3] 0.016 | [4] -0.053 | [5] -0.071

ENTPD5 (UniProt O75356)
inactive: [1] -0.094 | [2] 0.116 | [3] 0.022 | [4] -0.007 | [5] -0.068

ERBIN isoform 8 (UniProt Q96RT1)
inactive: [1] -0.012 | [2] 0.02 | [3] -0.04 | [4] 0.037 | [5] -0.048

EIPR1 (UniProt Q53HC9)
inactive: [1] 0.021 | [2] 0.009 | [3] 0.03 | [4] -0.04 | [5] -0.028

ELOVL1 (UniProt Q9BW60)
inactive: [1] -0.141 | [2] 0.05 | [3] 0.07 | [4] 0.021 | [5] 0.044

EPB41 (UniProt P11171)
inactive: [1] -0.004 | [2] -0.021 | [3] -0.023 | [4] 0.027 | [5] 0.032

EIF2S2 (UniProt P20042)
inactive: [1] 0.038 | [2] -0.007 | [3] 0.019 | [4] -0.018 | [5] -0.02

ERCC6L (UniProt Q2NKX8)
inactive: [1] -0.006 | [2] 0.044 | [3] 0.058 | [4] 0.023 | [5] 0.033

EMP3 (UniProt P54852)
inactive: [1] 0.026 | [2] -0.028 | [3] -0.038 | [4] -0.113 | [5] -0.345

ELOC (UniProt Q15369)
inactive: [1] -0.063 | [2] 0.011 | [3] 0.006 | [4] 0.053 | [5] 0.032

EIF2B3 (UniProt Q9NR50)
inactive: [1] -0.047 | [2] 0.008 | [3] -0.01 | [4] 0.004 | [5] 0.107

ERAL1 (UniProt O75616)
inactive: [1] -0.048 | [2] 0.033 | [3] 0.007 | [4] 0.009 | [5] 0.075

EPB41, A0A2R8Y6D0
inactive: [1] -0.052 | [2] 0.028 | [3] -0.071 | [4] 0.048 | [5] 0.11

ENOSF1 (UniProt Q7L5Y1)
inactive: [1] 0.02 | [2] 0.012 | [3] -0.011 | [4] -0.013 | [5] -0.012

EIF5 (UniProt P55010)
inactive: [1] 0.013 | [2] 0.013 | [3] 0.002 | [4] 0.013 | [5] 0.031

ELAVL1 isoform 2 (UniProt Q15717)
inactive: [1] -0.038 | [2] 0 | [3] -0.017 | [4] 0.066 | [5] 0.052
